Data source: PubChem BioAssay AID1224828 (NIAID, 2016)

- Screen: 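Regulators linking TLR4 signalling to p65 nuclear translocation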 (primary screen)
- Cell system: mouse RAW264.7 G9 macrophage reporter cells (GFP-p65, Tnf promoter-mCherry)
- Knock-down reagent: siRNA pool against mouse genes, 100 nM
- Timing: 2 days siRNA transfection, then 40 min LPS before fixation
- Conditions: LPS (Salmonella minnesota R595) at 10 ng/ml
- Measurement: 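Microscopy ratio of nuclear to perinuclear-ring GFP-p65 signal, scaled to the plate median; gene score is the average of two replicate robust z-scores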
- Scale: p65 translocation robust z-score: higher = more nuclear NF-kappaB p65 after LPS than the plate median; nuclear/cytoplasmic p65 ratio: higher = more nuclear NF-kappaB p65
- Rule for the call: 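Active if robust z is above 3.3 (negative regulators) or below -1.56, the Tlr4 control median (positive regulators); activity score 50 or more; control wells not called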
- Meaning of the calls: active = hit (p65 shift raised or lowered); inactive = no clear change
Shown is an unselected part of about 17,000 deposited reagents. In the full data, 762 (4.5%) were called active. 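Active calls include both raised and lowered p65 entry, mostly lowered; wells with fewer than 50 cells lack a z-score.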 Raw values are not corrected between plates. A number with no mark means an inactive call. No sequences are given here.

gene knocked down	p65 translocation robust z-score	nuclear/cytoplasmic p65 ratio, rep 1	nuclear/cytoplasmic p65 ratio, rep 2	low cell count flag
Dnaaf4 (dynein axonemal assembly factor 4)	-2.63 (active)	1.15	0.989	enough cells to score
Mpzl2 (myelin protein zero-like 2)	-0.12	1.56	1.41	enough cells to score
Trim23 (tripartite motif-containing 23)	0.85	1.61	1.64	enough cells to score
Pmel (premelanosome protein)	0.08	1.52	1.61	enough cells to score
A930104D05Rik (RIKEN cDNA A930104D05 gene)	-0.26	1.45	1.38	enough cells to score
Rad52 (RAD52 homolog, DNA repair protein)	-0.22	1.49	1.48	enough cells to score
Tssk1 (testis-specific serine kinase 1)		1.52	1.52	fewer than 50 cells per well; well left out of scoring
Mucl2 (mucin-like 2)	2.87	1.87	1.49	enough cells to score
Wdr83 (WD repeat domain containing 83)		3.91	1.39	fewer than 50 cells per well; well left out of scoring
Lsm12 (LSM12 homolog)	-1.02	1.19	1.41	enough cells to score
Flnc (filamin C, gamma)	-0.74	1.47	1.53	enough cells to score
Osm (oncostatin M)	-0.05	1.49	1.36	enough cells to score
Chmp3 (charged multivesicular body protein 3)	-0.12	1.35	1.24	enough cells to score
Ptges (prostaglandin E synthase)	-0.65	1.41	1.23	enough cells to score
Sft2d2 (SFT2 domain containing 2)		1.29	1.35	fewer than 50 cells per well; well left out of scoring
Or2ag1b (olfactory receptor family 2 subfamily AG member 1B)		0.831	1.17	fewer than 50 cells per well; well left out of scoring
Ptch1 (patched 1)	0.91	1.66	1.5	enough cells to score
Cep89 (centrosomal protein 89)	-0.86	1.27	1.36	enough cells to score
Sec11a (SEC11 homolog A, signal peptidase complex subunit)	-0.68	1.34	1.14	enough cells to score
Vps13a (vacuolar protein sorting 13A)	-0.08	1.65	1.45	enough cells to score
Bmp2 (bone morphogenetic protein 2)	0.27	1.7	1.61	enough cells to score
Aldh3b3 (aldehyde dehydrogenase 3 family, member B3)	-0.84	1.35	1.24	enough cells to score
Tlr13 (toll-like receptor 13)	-1.36	1.15	1.08	enough cells to score
Gse1 (genetic suppressor element 1, coiled-coil protein)	-0.98	1.22	1.42	enough cells to score
Trap1 (TNF receptor-associated protein 1)	-0.73	1.5	1.51	enough cells to score
Coro1c (coronin, actin binding protein 1C)	0.14	1.42	1.46	enough cells to score
Scn11a (sodium channel, voltage-gated, type XI, alpha)	0.9	1.79	1.57	enough cells to score
Nupr1 (nuclear protein transcription regulator 1)	0.54	1.88	1.53	enough cells to score
Anp32b (acidic nuclear phosphoprotein 32 family member B)	1.13	1.68	1.96	enough cells to score
Vmn1r180 (vomeronasal 1 receptor 180)	1.19	1.24	1.36	enough cells to score
Kcnq1 (potassium voltage-gated channel, subfamily Q, member 1)	0.04	1.37	1.48	enough cells to score
Cox6b1 (cytochrome c oxidase, subunit 6B1)	0.45	1.75	1.74	enough cells to score
Tex13c3 (TEX13 family member C3)	0.55	1.74	1.61	enough cells to score
Vmn2r7 (vomeronasal 2, receptor 7)		1.61	1.69	fewer than 50 cells per well; well left out of scoring
Gjd3 (gap junction protein, delta 3)	-1.52	1.35	1.38	enough cells to score
LOC277923 (retired record)	0.96	1.78	1.76	enough cells to score
Or1l8 (olfactory receptor family 1 subfamily L member 8)	0.27	1.62	1.49	enough cells to score
Srpx (sushi-repeat-containing protein)	-0.21	1.53	1.51	enough cells to score
Mims2 (mitochondrial inner membrane scaffold 2)	-0.26	1.33	1.39	enough cells to score
Ano5 (anoctamin 5)	1.3	1.83	1.6	enough cells to score
